The record followed here is the supplement of paper PMC12819154, “High-throughput peptide-centric local stability assay extends protein–ligand identification to membrane proteins, tissues and bacteria” (Nature Structural & Molecular Biology, 2025).

The chains behind the UniProt entries cited, without tags or fusion partners. Where a name states a change or a piece, a line headed by the entry shows the natural chain unless it says otherwise.
UniProt O94892: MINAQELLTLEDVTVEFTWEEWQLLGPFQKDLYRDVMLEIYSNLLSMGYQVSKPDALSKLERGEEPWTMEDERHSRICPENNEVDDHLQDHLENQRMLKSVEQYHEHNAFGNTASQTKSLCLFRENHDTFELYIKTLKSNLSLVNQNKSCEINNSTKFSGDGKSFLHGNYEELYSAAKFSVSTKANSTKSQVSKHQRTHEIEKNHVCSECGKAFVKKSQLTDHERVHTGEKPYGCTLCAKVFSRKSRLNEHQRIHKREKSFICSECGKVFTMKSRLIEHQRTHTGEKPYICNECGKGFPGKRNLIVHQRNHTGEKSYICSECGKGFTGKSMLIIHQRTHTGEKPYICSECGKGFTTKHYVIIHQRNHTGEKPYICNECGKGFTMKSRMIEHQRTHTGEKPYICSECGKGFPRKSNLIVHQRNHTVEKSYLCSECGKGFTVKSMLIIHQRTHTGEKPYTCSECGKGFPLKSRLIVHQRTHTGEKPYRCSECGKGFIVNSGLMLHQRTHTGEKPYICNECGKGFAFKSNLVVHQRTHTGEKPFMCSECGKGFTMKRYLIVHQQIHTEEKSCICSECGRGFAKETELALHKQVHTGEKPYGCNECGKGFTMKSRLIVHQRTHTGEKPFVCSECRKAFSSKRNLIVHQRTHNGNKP
UniProt O75469: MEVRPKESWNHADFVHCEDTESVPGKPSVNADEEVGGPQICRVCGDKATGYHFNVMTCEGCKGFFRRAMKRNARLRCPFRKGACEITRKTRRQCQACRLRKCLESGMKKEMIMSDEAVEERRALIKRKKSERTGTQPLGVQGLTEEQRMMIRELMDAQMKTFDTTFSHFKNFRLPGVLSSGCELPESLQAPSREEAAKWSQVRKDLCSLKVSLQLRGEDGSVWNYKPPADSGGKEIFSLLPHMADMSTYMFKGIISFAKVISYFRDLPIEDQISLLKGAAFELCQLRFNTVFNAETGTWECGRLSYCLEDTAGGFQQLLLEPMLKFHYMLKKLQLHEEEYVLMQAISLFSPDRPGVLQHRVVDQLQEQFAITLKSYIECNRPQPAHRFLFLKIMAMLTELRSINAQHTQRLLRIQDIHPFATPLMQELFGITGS
UniProt O76064: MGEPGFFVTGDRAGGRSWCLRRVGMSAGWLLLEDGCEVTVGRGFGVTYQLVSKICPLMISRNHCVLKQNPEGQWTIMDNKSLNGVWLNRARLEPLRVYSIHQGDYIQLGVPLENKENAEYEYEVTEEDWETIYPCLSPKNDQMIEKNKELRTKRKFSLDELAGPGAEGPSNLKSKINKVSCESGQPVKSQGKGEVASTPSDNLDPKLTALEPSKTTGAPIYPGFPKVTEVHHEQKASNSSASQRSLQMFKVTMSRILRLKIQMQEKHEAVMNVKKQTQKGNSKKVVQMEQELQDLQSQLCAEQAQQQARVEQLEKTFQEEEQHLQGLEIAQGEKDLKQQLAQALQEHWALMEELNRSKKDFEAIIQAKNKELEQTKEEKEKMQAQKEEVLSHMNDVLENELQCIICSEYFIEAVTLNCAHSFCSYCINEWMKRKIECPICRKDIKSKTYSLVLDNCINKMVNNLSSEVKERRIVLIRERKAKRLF
UniProt O94992, whole entry: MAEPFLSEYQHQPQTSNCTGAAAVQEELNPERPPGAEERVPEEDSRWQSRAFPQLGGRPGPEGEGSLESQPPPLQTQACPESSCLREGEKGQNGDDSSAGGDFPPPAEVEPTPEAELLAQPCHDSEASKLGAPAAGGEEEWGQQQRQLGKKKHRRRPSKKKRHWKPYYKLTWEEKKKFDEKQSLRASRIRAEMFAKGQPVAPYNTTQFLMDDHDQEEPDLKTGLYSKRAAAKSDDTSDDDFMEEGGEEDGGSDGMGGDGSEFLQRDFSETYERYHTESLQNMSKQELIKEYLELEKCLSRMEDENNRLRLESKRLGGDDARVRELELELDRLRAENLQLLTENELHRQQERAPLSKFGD
UniProt O95630, whole entry: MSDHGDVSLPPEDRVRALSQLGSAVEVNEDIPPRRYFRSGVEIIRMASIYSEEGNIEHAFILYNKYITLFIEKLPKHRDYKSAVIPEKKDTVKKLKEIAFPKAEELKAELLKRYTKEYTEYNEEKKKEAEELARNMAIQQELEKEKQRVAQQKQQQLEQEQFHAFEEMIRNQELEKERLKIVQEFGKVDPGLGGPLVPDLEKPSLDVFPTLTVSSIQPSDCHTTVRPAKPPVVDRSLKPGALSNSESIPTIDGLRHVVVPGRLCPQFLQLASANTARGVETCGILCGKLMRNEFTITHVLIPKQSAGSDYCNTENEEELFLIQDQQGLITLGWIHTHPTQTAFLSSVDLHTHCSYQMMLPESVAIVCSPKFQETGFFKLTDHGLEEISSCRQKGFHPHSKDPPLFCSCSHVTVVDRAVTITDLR
UniProt O94868: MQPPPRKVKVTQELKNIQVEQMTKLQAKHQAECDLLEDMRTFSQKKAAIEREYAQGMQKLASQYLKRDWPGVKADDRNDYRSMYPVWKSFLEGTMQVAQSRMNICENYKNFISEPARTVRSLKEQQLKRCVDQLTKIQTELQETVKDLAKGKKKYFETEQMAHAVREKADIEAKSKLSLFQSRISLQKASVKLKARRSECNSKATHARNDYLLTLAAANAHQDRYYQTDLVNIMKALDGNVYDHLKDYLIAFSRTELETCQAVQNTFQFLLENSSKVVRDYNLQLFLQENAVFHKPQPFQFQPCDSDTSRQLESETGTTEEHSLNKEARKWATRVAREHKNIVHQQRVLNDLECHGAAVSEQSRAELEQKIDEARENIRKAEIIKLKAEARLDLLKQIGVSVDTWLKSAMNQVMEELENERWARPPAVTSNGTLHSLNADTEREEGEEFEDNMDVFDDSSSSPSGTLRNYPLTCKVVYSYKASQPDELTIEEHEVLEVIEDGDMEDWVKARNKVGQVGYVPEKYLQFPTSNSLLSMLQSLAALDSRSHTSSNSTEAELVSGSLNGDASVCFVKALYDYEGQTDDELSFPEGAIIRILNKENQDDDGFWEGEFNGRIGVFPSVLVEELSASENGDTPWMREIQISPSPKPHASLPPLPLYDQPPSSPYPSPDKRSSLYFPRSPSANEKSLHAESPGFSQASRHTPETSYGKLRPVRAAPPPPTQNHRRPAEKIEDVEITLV
UniProt O75832: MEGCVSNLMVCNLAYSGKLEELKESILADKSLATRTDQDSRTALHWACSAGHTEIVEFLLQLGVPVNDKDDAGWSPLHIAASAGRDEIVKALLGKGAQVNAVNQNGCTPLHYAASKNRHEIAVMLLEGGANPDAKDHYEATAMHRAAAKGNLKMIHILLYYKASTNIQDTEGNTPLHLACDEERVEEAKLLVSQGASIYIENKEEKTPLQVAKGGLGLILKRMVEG
UniProt O94913, whole entry: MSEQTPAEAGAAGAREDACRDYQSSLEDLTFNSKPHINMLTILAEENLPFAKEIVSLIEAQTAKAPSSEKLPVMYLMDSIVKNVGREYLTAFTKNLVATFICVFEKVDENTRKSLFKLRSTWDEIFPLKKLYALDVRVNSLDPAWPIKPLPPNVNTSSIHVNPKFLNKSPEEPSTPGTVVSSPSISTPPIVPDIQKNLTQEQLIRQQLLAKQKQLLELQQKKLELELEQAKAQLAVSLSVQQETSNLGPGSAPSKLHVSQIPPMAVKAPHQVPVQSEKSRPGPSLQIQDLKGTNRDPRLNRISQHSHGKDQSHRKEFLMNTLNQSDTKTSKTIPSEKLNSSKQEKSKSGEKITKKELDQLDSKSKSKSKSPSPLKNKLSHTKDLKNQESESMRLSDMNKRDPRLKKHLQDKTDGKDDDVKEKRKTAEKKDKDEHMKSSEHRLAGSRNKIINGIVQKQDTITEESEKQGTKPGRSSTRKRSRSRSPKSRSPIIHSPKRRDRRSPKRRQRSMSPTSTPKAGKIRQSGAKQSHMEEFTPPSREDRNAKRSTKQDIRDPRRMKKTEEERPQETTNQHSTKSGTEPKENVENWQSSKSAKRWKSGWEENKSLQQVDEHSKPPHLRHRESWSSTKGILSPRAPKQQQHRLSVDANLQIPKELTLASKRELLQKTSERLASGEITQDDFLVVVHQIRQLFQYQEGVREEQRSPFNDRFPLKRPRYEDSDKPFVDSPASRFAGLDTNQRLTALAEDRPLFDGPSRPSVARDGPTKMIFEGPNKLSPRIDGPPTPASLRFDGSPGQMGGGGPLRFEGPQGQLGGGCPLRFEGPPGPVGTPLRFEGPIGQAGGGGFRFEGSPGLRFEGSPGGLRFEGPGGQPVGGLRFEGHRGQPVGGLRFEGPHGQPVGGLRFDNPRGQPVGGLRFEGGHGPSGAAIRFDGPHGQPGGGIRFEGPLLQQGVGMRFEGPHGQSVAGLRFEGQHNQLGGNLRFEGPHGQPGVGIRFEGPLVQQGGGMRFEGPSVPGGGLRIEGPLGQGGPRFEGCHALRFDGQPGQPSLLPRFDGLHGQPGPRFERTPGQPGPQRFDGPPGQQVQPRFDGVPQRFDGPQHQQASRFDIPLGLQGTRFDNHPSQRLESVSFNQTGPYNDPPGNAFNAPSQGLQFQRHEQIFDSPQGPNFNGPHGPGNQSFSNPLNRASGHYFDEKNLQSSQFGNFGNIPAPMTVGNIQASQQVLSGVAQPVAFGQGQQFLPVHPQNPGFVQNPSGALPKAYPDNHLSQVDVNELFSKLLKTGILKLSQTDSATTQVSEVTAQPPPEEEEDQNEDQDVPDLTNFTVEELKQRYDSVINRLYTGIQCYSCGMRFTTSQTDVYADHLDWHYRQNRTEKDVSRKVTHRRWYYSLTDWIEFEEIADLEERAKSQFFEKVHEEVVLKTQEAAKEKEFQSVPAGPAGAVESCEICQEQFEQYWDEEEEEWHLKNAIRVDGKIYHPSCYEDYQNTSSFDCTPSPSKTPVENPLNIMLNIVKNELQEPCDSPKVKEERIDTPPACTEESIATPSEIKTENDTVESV
UniProt O75528: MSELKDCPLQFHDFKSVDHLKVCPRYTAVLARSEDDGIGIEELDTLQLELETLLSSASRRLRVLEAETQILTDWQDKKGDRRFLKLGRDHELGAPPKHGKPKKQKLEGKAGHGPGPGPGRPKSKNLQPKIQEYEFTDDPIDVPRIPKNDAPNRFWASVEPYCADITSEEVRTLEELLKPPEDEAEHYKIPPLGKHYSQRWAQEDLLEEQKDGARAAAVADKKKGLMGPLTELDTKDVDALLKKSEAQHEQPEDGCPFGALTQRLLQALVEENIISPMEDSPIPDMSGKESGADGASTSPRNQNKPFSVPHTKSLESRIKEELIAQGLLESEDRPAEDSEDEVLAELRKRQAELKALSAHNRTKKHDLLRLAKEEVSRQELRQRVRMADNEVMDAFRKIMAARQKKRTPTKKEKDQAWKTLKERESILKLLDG
UniProt O75717: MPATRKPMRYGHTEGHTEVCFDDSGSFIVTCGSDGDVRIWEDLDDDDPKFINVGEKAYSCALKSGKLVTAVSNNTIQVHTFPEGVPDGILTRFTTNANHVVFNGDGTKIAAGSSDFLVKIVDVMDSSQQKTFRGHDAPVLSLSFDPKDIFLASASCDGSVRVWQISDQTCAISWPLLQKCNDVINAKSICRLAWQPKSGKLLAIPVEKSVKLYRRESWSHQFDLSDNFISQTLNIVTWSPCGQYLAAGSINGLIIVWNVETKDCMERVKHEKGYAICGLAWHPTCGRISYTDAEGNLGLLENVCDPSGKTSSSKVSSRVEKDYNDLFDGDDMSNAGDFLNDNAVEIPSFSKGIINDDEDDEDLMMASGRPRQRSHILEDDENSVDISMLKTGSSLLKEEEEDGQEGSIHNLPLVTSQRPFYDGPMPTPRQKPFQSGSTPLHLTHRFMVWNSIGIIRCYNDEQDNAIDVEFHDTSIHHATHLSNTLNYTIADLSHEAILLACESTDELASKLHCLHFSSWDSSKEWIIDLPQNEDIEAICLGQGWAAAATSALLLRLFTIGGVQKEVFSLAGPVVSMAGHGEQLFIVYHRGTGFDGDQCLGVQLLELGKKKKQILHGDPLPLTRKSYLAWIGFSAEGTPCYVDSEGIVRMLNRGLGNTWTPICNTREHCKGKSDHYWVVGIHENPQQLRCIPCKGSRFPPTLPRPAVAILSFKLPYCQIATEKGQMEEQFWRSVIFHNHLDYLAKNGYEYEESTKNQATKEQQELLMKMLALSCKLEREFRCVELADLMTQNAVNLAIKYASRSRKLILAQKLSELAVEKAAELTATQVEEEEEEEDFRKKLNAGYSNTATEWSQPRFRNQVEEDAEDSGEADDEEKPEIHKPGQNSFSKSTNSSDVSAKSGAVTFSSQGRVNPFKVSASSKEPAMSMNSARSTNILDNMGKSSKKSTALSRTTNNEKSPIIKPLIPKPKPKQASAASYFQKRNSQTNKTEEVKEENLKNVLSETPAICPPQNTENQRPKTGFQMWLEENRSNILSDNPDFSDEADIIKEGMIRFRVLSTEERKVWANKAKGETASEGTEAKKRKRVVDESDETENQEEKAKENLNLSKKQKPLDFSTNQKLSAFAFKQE

The other results are listed elsewhere or left out. Most values lie at the level of the controls, where differences are scatter.

Compound in the assay: Cc1nc(Nc2ncc(C(=O)Nc3c(C)cccc3Cl)s2)cc(N2CCN(CCO)CC2)n1 [dasatinib]
Kind of assay: log2 fold change of tryptic peptide abundance, ligand vs vehicle (limited proteolysis) (log2 ratio); higher = more trypsin-susceptible (destabilized). As to conditions: ligand concentration: 5 uM; sample: K562 cleared lysate.
In the case of “GLUD1 (peptide sequence: MVEGFFDR, peptide start residue: 69) (UniProt P00367)”, the log2 fold change is 0.152.

On to “UniProt O94892 (peptide sequence: SFLHGNYEELYSAAK, peptide start residue: 164)”, for which the log2 fold change amounted to 0.199.

In the case of “UniProt O75469 (peptide sequence: KCLESGMKK, peptide start residue: 101)”, the log2 fold change is 0.396.

Regarding “LATS1 (peptide sequence: DIKPDNILIDRDGHIK, peptide start residue: 828) (UniProt O95835)”, the log2 fold change is -0.388.

For “RNF8 (peptide sequence: SLNGVWLNR, peptide start residue: 81) (UniProt O76064)”, the log2 fold change came out at 0.543.

For the target “HEXIM1 (peptide sequence: VRELELELDR, peptide start residue: 322) (UniProt O94992)”, the log2 fold change came to 0.421.

Consider “UTP20 (peptide sequence: FLASDLDQK, peptide start residue: 2520) (UniProt O75691)”, for which the log2 fold change was determined as 0.254.

Consider “STAMBP (peptide sequence: EYTEYNEEK, peptide start residue: 117) (UniProt O95630)”, for which the log2 fold change was 0.075.

Turning to “FCHSD2 (peptide sequence: MNICENYK, peptide start residue: 102) (UniProt O94868)”, the log2 fold change was determined as 0.454.

On to “PSMD10 (peptide sequence: NRHEIAVMLLEGGANPDAK, peptide start residue: 117) (UniProt O75832)”, for which the log2 fold change came out at 0.18.

As to “PCF11 (peptide sequence: ELTLASKR, peptide start residue: 655) (UniProt O94913)”, the log2 fold change was -0.185.

As for “MTA2 (peptide sequence: QPSLHMSAAAASR, peptide start residue: 215) (UniProt O94776)”, the log2 fold change was 0.21.

“UniProt O75528 (peptide sequence: ERESILK, peptide start residue: 422)”: the log2 fold change worked out at 0.327.

For the target “SBF1 (peptide sequence: IHPEPVIR, peptide start residue: 392) (UniProt O95248)”, the log2 fold change is -0.207.

As for “WDHD1 (peptide sequence: NQATKEQQELLMK, peptide start residue: 755) (UniProt O75717)”, the log2 fold change is -0.276.

Consider “UniProt O75879 (peptide sequence: VDANISVHHPGEPLGVR, peptide start residue: 260)”, for which the log2 fold change stood at 0.152.
